Test results as given in patent publication US20240207318A1, “CHIMERIC COSTIMULATORY RECEPTORS, CHEMOKINE RECEPTORS, AND THE USE OF SAME IN CELLULAR IMMUNOTHERAPIES” (Iovance Biotherapeutics, Inc., priority 2021, published 2024).
At least one structure is not confirmed: it was looked up by name or label, or the drawing left a doubt.

Columns and labels:
Type in all cases: cell-based, human
TILs [1] = assay: Cytokine expression of drug-treated TILs after overnight anti-CD3/CD28 bead stimulation; details: decitabine; anti-CD3/CD28 beads 1:5 overnight
TILs [2] = assay: Flow cytometry phenotype of drug-treated TILs (T-cell subsets, surface markers, transcription factors)
TILs [3] = assay: Expansion and viability of TILs treated with drug during ex vivo 22-day expansion; details: decitabine 10, 30, 100 nM; REP only or pre-REP and REP
Procedure: Patient tumors from different indications were received, fragmented, and subjected to an expansion protocol for TIL manufacturing. Different doses (0.3 μM and 1 μM) of the pan-AKT inhibitor ipatasertib were added to the culture during ex vivo expansion. The expansion potential, as well as the phenotypic and functional characteristics were evaluated on the final TIL product. Eight tumors, including tumors from melanoma, NSCLC, head and neck cancer, ovarian cancer, and breast cancer, were used in combination with the Gen 2 process.
Expansion, viability and T cell distribution in control and AKT inhibitor-treated TILs are shown. TILs were left untreated or treated with increasing concentrations of the pan-AKT inhibitor ipatasertib. Treatment was added either during the pre-REP and REP (blue bars) or during the REP stage only (purple bars). Fold expansion and viability of TIL at the end of the 22-day expansion process are shown. Frequency of CD8^+, CD4^+ and CD4^+ (Foxp3^+) cells after the expansion process on cryopreserved cells are also shown.
In this example, the use of decitabine, a DNA hypomethylation agent, in culture as an epigenetic modifier of TIL products was explored. […] The expansion potential as well as the phenotypic and functional characteristics of TILs were evaluated in the final TIL product. […]

[4] = decitabine, TransAct stimulation every 5 days, three times

SMILES: Nc1ncn([C@H]2C[C@H](O)[C@@H](CO)O2)c(=O)n1 [decitabine]
- frequency of TNF-α and granzyme B expressing CD8+ TILs following stimulation (TILs [1]): increased
- frequency of TCM-like cells in CD8+ and CD4+ T cells (TILs [2]; decitabine during the REP stage): increased
- CD4+/CD8+ T-cell ratio (TILs [2]; decitabine-treated TILs): increasing
- frequency of co-stimulatory receptors (CD25, ICOS, CD28, IL-7R) on CD8+ TILs (TILs [2]; decitabine-treated TILs): increase
- inhibitory receptor expression (PD-1, TIGIT) on CD8+ TILs (TILs [2]; decitabine-treated TILs): decreasing
- expression of memory-associated transcription factors (TILs [2]; decitabine-treated cryopreserved TILs, CD8+): increased
- IL-7R expression after repeated stimulation (TILs [2]; [4]): increased IL-7R expression
- inhibitory receptor expression after repeated stimulation (TILs [2]; [4]): reduced inhibitory receptor expression
- levels of TOX after repeated stimulation (TILs [2]; [4]): lower levels of TOX
- TIL expansion (TILs [3]): decreased
- TIL viability (TILs [3]): maintained
